Results are given in words; binding and its absence hold for the method and conditions named. For some assays here: Binding seen in cells or lysates may run through a third protein. Some results given as binding are weak or reduced against the parent protein; the word gives no strength.
Key:
[1] = target: Flag-pro-C3 (full-length single-chain human pro-C3 with a Flag-tag at its C-terminal) (human) (UniProt P01024); assay: pull-down; anti-Flag antibody beads incubated with transfected 293 T cell lysate 3 h at 4 °C, washed once, then incubated with lysate of H2O2-treated AC16 cells 3 h at 4 °C, washed 4 times, eluted; Western blot; IP buffer 0.2% NP-40, 10% glycerol, 10 mM Tris-HCl pH 8.0, 100 mM KCl
[2] = target: complement C3 (mouse, in heart lysate or cytosolic fraction of WT mice after I/R) (mouse (endogenous in C57BL/6 heart)) (UniProt P01027); assay: ELISA; sandwich ELISA: plate coated with polyclonal anti-C3 Ab captures the C3 complex from heart cytosolic fractions of WT and C3-/- mice (1 h ischemia/3 h reperfusion); detected with anti-cytochrome c Ab

Protein sequences, listed by entry. Tags and fused reporters are not part of them. Residues count along the entry.
UniProt P01024, residues 23-1663: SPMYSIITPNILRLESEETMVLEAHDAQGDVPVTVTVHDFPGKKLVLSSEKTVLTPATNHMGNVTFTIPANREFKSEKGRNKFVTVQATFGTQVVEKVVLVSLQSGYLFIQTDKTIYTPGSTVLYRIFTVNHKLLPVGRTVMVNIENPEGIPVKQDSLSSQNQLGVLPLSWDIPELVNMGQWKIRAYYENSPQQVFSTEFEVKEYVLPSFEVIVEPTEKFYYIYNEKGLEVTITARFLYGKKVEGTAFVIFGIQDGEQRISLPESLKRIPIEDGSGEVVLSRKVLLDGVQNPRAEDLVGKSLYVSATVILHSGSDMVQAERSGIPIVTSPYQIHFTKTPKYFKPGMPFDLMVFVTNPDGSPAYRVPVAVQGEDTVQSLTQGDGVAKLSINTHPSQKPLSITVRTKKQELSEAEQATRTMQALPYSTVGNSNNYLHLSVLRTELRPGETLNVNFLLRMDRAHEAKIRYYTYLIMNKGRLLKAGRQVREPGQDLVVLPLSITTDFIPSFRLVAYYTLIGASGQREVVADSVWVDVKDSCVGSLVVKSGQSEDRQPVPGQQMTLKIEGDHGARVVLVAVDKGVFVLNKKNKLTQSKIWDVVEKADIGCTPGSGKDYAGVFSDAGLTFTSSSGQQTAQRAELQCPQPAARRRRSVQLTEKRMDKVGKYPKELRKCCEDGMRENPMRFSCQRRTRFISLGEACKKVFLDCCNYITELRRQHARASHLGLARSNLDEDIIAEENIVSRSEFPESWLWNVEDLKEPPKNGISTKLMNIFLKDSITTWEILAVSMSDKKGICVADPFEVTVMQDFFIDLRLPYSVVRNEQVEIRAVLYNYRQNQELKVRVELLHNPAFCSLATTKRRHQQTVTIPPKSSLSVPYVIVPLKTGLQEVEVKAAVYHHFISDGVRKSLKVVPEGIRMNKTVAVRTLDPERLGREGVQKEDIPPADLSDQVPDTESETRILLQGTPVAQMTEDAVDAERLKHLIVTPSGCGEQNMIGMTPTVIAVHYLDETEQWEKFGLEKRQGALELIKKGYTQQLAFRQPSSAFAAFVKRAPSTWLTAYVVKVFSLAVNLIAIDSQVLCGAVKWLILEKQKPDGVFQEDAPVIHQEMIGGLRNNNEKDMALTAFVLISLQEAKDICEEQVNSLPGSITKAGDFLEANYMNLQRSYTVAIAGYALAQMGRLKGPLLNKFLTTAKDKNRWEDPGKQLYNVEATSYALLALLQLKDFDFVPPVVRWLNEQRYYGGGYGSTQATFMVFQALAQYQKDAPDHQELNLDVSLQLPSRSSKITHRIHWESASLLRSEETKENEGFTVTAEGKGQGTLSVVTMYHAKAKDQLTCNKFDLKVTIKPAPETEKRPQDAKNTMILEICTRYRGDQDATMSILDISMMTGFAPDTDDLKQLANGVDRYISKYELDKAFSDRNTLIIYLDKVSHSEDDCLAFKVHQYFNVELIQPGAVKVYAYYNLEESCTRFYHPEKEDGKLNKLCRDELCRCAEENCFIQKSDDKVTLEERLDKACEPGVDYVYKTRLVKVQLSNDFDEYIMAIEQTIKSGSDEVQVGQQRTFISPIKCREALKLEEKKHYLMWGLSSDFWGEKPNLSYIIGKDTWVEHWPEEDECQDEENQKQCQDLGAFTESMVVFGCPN
UniProt P01027, residues 25-1663: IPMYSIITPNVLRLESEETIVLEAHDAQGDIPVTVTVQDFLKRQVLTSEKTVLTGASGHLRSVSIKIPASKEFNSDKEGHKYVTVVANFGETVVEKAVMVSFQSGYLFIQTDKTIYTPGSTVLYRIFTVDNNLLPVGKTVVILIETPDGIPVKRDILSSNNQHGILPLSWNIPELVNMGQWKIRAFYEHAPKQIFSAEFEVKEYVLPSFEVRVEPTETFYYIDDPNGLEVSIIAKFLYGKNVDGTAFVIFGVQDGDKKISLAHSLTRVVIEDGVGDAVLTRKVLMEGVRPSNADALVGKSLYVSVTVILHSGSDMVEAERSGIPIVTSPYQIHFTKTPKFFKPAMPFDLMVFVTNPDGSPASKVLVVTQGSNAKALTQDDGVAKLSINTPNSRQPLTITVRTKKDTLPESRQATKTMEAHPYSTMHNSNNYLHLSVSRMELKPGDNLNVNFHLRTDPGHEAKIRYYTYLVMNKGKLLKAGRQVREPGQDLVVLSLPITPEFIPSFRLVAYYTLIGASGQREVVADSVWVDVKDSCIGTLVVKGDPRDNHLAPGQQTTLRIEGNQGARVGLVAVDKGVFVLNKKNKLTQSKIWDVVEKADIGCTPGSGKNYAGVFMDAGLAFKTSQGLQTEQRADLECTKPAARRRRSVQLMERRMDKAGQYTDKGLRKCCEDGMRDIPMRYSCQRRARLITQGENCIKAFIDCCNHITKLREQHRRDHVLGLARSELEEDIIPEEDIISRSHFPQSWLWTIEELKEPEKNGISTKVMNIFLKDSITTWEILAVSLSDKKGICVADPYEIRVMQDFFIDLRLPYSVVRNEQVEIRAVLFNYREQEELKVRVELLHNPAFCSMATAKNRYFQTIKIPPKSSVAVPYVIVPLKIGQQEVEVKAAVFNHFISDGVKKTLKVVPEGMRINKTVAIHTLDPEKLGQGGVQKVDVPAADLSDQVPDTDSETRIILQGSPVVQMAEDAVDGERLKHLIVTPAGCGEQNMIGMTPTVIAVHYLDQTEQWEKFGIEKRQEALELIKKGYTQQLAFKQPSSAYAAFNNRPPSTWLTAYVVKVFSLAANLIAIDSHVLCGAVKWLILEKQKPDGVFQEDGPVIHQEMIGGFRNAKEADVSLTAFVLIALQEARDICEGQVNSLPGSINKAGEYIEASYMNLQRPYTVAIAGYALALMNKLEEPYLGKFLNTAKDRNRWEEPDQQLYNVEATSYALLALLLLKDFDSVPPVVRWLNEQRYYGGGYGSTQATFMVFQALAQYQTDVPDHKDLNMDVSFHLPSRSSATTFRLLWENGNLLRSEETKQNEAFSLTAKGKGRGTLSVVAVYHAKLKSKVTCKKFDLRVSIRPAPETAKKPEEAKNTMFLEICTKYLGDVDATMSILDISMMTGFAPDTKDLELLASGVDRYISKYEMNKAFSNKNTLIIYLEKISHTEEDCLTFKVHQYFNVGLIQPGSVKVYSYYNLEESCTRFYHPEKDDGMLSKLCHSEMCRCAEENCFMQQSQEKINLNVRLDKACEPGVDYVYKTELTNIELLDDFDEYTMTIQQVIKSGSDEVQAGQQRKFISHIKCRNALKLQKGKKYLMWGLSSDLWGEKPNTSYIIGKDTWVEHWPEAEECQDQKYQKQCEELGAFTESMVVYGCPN
UniProt P99999: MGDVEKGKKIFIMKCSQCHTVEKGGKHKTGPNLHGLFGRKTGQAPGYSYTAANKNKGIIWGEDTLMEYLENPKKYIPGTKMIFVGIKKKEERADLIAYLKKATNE
UniProt P62897: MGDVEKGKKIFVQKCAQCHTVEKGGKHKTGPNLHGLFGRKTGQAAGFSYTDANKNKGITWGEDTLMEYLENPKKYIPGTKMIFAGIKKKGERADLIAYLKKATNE

binding [1] | binding [2] | Substance
no binding | – | cytochrome c (human, AC16 cell lysate) (from UniProt P99999 1-105)
– | binds | cytochrome c (mouse, heart) (from UniProt P62897 1-105)

From publication PMC10528058
